Assay results taken from PMC6644156, “A de novo substitution in BCL11B leads to loss of interaction with transcriptional complexes and craniosynostosis” (Human Molecular Genetics, 2019).
These are yes or no findings as the source states them, for the method shown. Binding seen in cells or lysates may run through a third protein. Some binding calls cover weakened binding; strength is not graded here.

Chains of the proteins cited; added tags and fusions are not shown. Lines headed by an entry give the natural chain unless they say otherwise; changes in a name come on top.
UniProt Q9C0K0: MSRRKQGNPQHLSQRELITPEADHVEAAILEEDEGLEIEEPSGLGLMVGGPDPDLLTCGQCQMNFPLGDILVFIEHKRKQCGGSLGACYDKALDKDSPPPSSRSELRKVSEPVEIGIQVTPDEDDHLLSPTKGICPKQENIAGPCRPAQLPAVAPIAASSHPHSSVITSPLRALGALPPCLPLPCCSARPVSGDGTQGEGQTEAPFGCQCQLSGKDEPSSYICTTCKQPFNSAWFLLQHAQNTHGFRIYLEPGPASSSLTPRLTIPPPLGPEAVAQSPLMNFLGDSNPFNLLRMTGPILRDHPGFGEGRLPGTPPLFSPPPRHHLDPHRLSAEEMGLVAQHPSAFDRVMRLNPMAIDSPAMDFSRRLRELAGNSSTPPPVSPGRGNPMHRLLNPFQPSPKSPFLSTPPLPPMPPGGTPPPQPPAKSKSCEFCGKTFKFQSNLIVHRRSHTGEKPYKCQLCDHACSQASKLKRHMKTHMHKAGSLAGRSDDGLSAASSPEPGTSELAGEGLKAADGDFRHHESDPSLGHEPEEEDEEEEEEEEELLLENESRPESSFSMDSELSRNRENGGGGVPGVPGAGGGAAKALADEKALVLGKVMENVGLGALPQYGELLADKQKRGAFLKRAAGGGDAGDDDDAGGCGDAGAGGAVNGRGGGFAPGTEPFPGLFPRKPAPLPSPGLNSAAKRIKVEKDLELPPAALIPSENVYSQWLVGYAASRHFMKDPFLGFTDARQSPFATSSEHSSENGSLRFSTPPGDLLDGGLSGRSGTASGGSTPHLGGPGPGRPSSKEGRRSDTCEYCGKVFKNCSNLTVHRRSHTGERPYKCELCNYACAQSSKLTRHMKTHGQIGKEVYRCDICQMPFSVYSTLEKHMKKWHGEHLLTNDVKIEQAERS
UniProt Q92769: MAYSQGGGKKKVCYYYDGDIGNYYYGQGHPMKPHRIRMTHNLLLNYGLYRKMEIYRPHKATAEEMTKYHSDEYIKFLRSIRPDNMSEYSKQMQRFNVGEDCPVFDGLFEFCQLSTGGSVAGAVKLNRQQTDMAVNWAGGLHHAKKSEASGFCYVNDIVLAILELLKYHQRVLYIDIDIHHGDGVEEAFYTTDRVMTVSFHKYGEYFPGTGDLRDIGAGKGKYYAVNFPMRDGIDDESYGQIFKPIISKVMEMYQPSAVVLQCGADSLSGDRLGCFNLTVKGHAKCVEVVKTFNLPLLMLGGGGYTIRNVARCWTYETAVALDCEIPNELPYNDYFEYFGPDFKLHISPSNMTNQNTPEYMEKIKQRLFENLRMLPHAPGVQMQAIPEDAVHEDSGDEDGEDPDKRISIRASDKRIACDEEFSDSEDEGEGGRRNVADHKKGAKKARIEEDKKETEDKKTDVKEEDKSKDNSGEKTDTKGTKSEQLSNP

Key:
[1] = biological target: FLAG-BCL11B (UniProt Q9C0K0); experiment: co-IP; anti-FLAG immunoprecipitation of FLAG-BCL11B or FLAG-BCL11B p.R3S from native extracts of transiently transfected HEK293T cells (20 mM HEPES pH 7.4, 250 mM NaCl, 2 mM EDTA, 10% glycerol, 0.5% NP-40); blots probed for BCL11B, MTA2, HDAC2, EZH2 and Myc (Myc-SIRT1)
[2] = biological target: FLAG-BCL11B p.R3S (UniProt Q9C0K0); experiment: as above

binding [1]: binds | binding [2]: no binding
Substance: HDAC2 (from UniProt Q92769 1-488)
